Earlier results in PMC10356901, “Mitochondria-derived peptide SHLP2 regulates energy homeostasis through the activation of hypothalamic neurons” (Nature Communications, 2023).

Settings: cited from earlier work

| Substance | circulating MOTS-c in diabetes patients | plasma levels with age | humanin level in human diseases |
| --- | --- | --- | --- |
| Mito chondrial Open Reading Frame of the 12S rRNA-c (MRWQEMGYIFYPRKLR; UniProt A0A0C5B5G6 1-16, looked up) [MOTS-c, mitochondrial-derived peptide encoded by the mitochondrial 12S rRNA gene] | reduced in diabetes patients | plasma levels tend to decline with age | – |
| humanin: 24-amino-acid peptide encoded by the mitochondrial 16S ribosomal RNA gene | – | plasma levels tend to decline with age | decreased in human diseases such as Alzheimer’s disease, mitochondrial encephalopathy, lactic acidosis, and stroke-like episodes |
